Reference: PubChem BioAssay AID2685 (National Center for Advancing Translational Sciences (NCATS), 2010)
Out of some 320,000 compounds screened, about 2,100 (0.66%) were called active. Inconclusive results, whose numbers are uncertain, are shown with a selection of clear calls. The call rests on the fitted dose curve; in most records, active means well fitted inhibition curve with a large enough effect in the signal ratio, with a control signal flat (not every such curve was filed as active); inconclusive means small, poorly fitted or top-dose-only effect, or effect the other way, or a change in a side signal; inactive means flat fitted curve, though single readings scatter; the % refers to the signal ratio. Potencies of inconclusive entries are doubtful fits and often do not repeat.

Assay: qHTS Assay for Lipid Storage Modulators in Drosophila S3 Cells
Conditions: BODIPY lipid droplet fluorescence, 18-24 h, cells fed with added oleic acid; lipid storage change, negative = inhibition: at 46.1 µM (top of the series) unless noted
Procedure, shortened: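 Drosophila S3 cells loaded with oleic acid (400 uM, as added) and compounds at several concentrations; lipid droplets imaged by 488-nm laser-scanning cytometry, 500–530 nm intensity and object ratio to cell channel. Percent activity normalized to 20 uM Triacsin C.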
On the % scale 0 is the no-effect control and ±100 the full control effect; potency means the concentration at half of the fitted maximal effect.

Q: Which lipid storage change, negative = inhibition does the source give for `CCCc1nnc(SCC(=O)Nc2ccc3c(c2)OCCO3)n1CCOC` here?
A: inconclusive: -117%

Q: Which Potency does the source give for `Cc1cc(C)cc(NC(=O)c2oc3ccccc3c2COc2ccccc2)c1` here?
A: inconclusive: 3.26 µM [activator, partial curve]

Q: With `O=C(CN1C(=O)c2cccc3cccc(c23)C1=O)N1CCCCC1` as the compound, how does the lipid storage change, negative = inhibition read?
A: inconclusive: -1.22%

Q: With `O=C(NCCCCO)c1ccc2c3c(cccc13)CC2` as the compound, how does the “lipid storage change, negative = inhibition” value read?
A: inactive: -7.19%

Q: Which Potency does the source give for `Cc1cccc(N=Nc2c(N)n[nH]c2N)c1` here?
A: inconclusive: 0.58 µM [falling, partial curve, poor fit]

Q: For `Cc1cc(=O)oc2cc(OC(C)C(=O)Nc3nccs3)ccc12` (stereo not given), which Potency is on record?
A: inconclusive: 6.51 µM [activator, partial curve]

Q: With `COc1cc(/C=C/C(=O)OCC(=O)N(C)Cc2ccccc2)ccc1O` as the compound, how does the lipid storage change, negative = inhibition read?
A: inconclusive: 18.9%

Q: With `Cc1ccc(NN2C(=O)C=C(c3ccc(Cl)cc3)C2=O)cc1` as the compound, how does the Potency read?
A: inconclusive: 14.6 µM [falling, single point]

Q: For `CC[n+]1c(C)n(-c2ccccc2)c2ccc(NC(C)=O)cc21`, which Potency is on record?
A: inconclusive: 29.1 µM [cytotoxic, single point]

Q: Which Potency does the source give for `O=C(Nc1ccncc1)c1c(F)cccc1F` here?
A: inconclusive: 20.6 µM [rising, partial curve]

Q: With `CSc1nc2ccc(NC(=O)c3ccc(F)c(F)c3)cc2s1` as the compound, how does the lipid storage change, negative = inhibition read?
A: inconclusive: 21.1%

Q: Which “outcome” value does the source give for `O=C1OCC(CO)(CO)N=C1NNc1ccccc1Cl` here?
A: inactive [at 46.1 µM]

Q: With `NNC(=O)C1COc2cc3ccccc3cc2O1` (stereo not given) as the compound, how does the lipid storage change, negative = inhibition read?
A: inconclusive: -13.7%

Q: Which “outcome” value does the source give for `O=C(Nc1cccc(C(F)(F)F)c1)c1cccnc1N1CCN(CCO)CC1` here?
A: inactive [at 46.1 µM]

Q: With `Cc1cccc(OCCNC(=O)c2cncc(Br)c2)c1` as the compound, how does the lipid storage change, negative = inhibition read?
A: inconclusive: 40%

Q: With `COC(=O)CCN(C(=O)c1ccc(OC(C)=O)cc1)c1ccccn1` as the compound, how does the “lipid storage change, negative = inhibition” value read?
A: inactive: 2.15%

Q: With `CCCCc1cc(=O)oc2cc(OCC(=O)NCc3ccccn3)ccc12` as the compound, how does the lipid storage change, negative = inhibition read?
A: inconclusive: -25%

Q: With `O=C(CSc1nncn1-c1cccnc1)Nc1cccc(C(F)(F)F)c1` as the compound, how does the lipid storage change, negative = inhibition read?
A: inconclusive: 0.966%

Q: Which lipid storage change, negative = inhibition does the source give for `CC(NC(=O)c1ccc(N(C)C)cc1)c1ccc(F)cc1` (stereo not given) here?
A: inconclusive: 9.55%

Q: With `Cc1ccn2c(=O)c(NC(=O)c3cccs3)c(C)nc2c1` as the compound, how does the lipid storage change, negative = inhibition read?
A: inconclusive

Q: Which Potency does the source give for `O=C(CCSCc1ccccc1F)N1CCN(c2ccccn2)CC1` here?
A: inconclusive: 13 µM [activator, partial curve]

Q: Which lipid storage change, negative = inhibition does the source give for `CCOC(=O)c1ccc(NC(=O)CC2OCCN(CC)C2=O)cc1` (stereo not given) here?
A: inconclusive: 25.1%

Q: With `O=c1ccccn1CCOc1ccccc1Cl` as the compound, how does the lipid storage change, negative = inhibition read?
A: inconclusive: 15.5%

Q: For `O=C(C1=C(O)C(=O)N(CCCN2CCOCC2)C1c1ccncc1)c1cc2ccccc2o1` (stereo not given), which lipid storage change, negative = inhibition is on record?
A: inconclusive: 4.93%

Q: For `O=C(O)Cc1ccc(-n2cccc2)cc1`, which lipid storage change, negative = inhibition is on record?
A: inconclusive: 0.607%

Q: Which Potency does the source give for `Cn1c(=O)oc2cc(S(=O)(=O)N3CCCc4ccccc43)ccc21` here?
A: inconclusive: 6.51 µM [activator, full curve, poor fit]

Q: For `Cc1ccc(N(C)S(=O)(=O)c2cccc(C(=O)NCC(c3cccs3)N3CCOCC3)c2)cc1` (stereo not given), which lipid storage change, negative = inhibition is on record?
A: inconclusive: 19.1%

Q: Which lipid storage change, negative = inhibition does the source give for `c1ccc2c(Cn3nnc4ccccc43)cccc2c1` here?
A: inconclusive: 68.2%

Q: Which lipid storage change, negative = inhibition does the source give for `O=C(CSCc1c(F)cccc1F)Nc1ccccc1` here?
A: inconclusive: 16.8%

Q: Which lipid storage change, negative = inhibition does the source give for `CS(=O)(=O)N1CCN(c2ccccc2NC(=O)c2ccc3ccccc3c2)CC1` here?
A: inconclusive: -8.03%

Q: For `CC(=O)Cc1nsc(NC(=O)c2ccco2)n1`, which Potency is on record?
A: inconclusive: 18.4 µM [falling, single point]

Q: With `CCCN1CCC(NC(=O)Nc2ccc(Br)cc2)CC1` as the compound, how does the lipid storage change, negative = inhibition read?
A: inconclusive: 2.74%

Q: For `O=c1c2ccc(Cl)cc2[nH]c(=S)n1Cc1cccnc1`, which lipid storage change, negative = inhibition is on record?
A: inconclusive: -2.96%

Q: With `Cc1ccc(C2Nc3cccc4cccc(c34)N2)s1` as the compound, how does the lipid storage change, negative = inhibition read?
A: inconclusive: 7.53%

Q: With `COc1cc(NC(C)=O)c2ncccc2c1[N+](=O)[O-]` as the compound, how does the lipid storage change, negative = inhibition read?
A: inconclusive: 26.9%

Q: Which Potency does the source give for `O=C(CN1C2CCCC1CC(NC(=O)C1CCCCC1)C2)NCc1ccc(F)cc1` (stereo not given) here?
A: inconclusive: 16.4 µM [falling, single point]

Q: Which lipid storage change, negative = inhibition does the source give for `Cc1cccc(Nc2nc(N3CCN(C)CC3)nc(N)c2[N+](=O)[O-])c1` here?
A: inconclusive: 23.6%

Q: With `CC1=NOC(=O)/C1=C\c1ccccc1` as the compound, how does the lipid storage change, negative = inhibition read?
A: inconclusive: -27.9%

Q: With `Cc1cc(C)cc(C(=O)NN2CCN(C)CC2)c1` as the compound, how does the Potency read?
A: inconclusive: 29.1 µM [rising, single point]

Q: For `COc1ccccc1NC(=O)CSc1nnc(-c2ccoc2C)n1CCc1ccccc1`, which lipid storage change, negative = inhibition is on record?
A: inconclusive: 18.3%

Q: With `CN(C1=C(NC(=O)c2ccccc2)C(=O)c2ccccc2C1=O)C1CCS(=O)(=O)C1` (stereo not given) as the compound, how does the Potency read?
A: inconclusive: 29.1 µM [falling, single point]

Q: For `O=C(/C=C/c1cccc2ccccc12)c1ccncc1`, which Potency is on record?
A: inconclusive: 6.51 µM [falling, partial curve]

Q: With `Cc1ccccc1OCC(=O)NNC(=O)Nc1ccc(Cl)cc1` as the compound, how does the lipid storage change, negative = inhibition read?
A: inconclusive: -24.5%

Q: With `Cn1cccc1CNC1CCCCC1` as the compound, how does the Potency read?
A: inconclusive: 11.6 µM [falling, partial curve, poor fit]

Q: Which Potency does the source give for `Cc1ccc(CNC(=O)[C@@H](NC(=O)C2CCN(C(=O)[C@@H](N)CC(C)C)CC2)C(C)C)cc1` here?
A: inconclusive: 0.731 µM [activator, full curve, poor fit]

Q: Which lipid storage change, negative = inhibition does the source give for `CC(=O)Nc1cc(-c2nn3c(C)nnc3s2)ccc1C` here?
A: inconclusive: -15.6%

Q: Which Potency does the source give for `O=C(NCc1ccc2c(c1)OCO2)c1ccc(S(=O)(=O)NCC2CCCO2)cc1` (stereo not given) here?
A: inconclusive: 13 µM [activator, partial curve]

Q: For `CCc1ccc(NC(=O)C2CCCN2c2nn3c(=O)cc(C)nc3s2)cc1` (stereo not given), which lipid storage change, negative = inhibition is on record?
A: inconclusive: 35.2%

Q: For `COCCNc1nc(N)c([N+](=O)[O-])c(N2CCCCCC2)n1`, which lipid storage change, negative = inhibition is on record?
A: inconclusive: 10.4%

Q: With `OCCSc1nncn1/N=C/c1c[nH]c2ccccc12` as the compound, how does the lipid storage change, negative = inhibition read?
A: inconclusive: 13%

Q: With `Cc1cc(C)cc(Oc2c(C(F)(F)F)oc3cc(OCC(=O)O)ccc3c2=O)c1` as the compound, how does the lipid storage change, negative = inhibition read?
A: inconclusive: -3.56%

Q: For `Cc1ccc(S(=O)(=O)Nc2nonc2C)cc1`, which lipid storage change, negative = inhibition is on record?
A: inconclusive: -15.7%

Q: For `CCOc1ccccc1/C=C(\C#N)C(=O)Nc1cccc(C(=O)O)c1`, which Potency is on record?
A: inconclusive: 0.92 µM [falling, partial curve, poor fit]

Q: For `Cc1onc(-c2c(F)cccc2Cl)c1C(=O)NCc1ccccn1`, which lipid storage change, negative = inhibition is on record?
A: inconclusive: -8.42%

Q: For `O=C(Nc1cccc(S(=O)(=O)N2CCCCCC2)c1)C1CCN(C(=O)c2ccc(F)cc2)CC1`, which Potency is on record?
A: inconclusive: 29.1 µM [falling, partial curve, poor fit]

Q: With `CC(C)Cn1c(O)c(N=NC(=O)c2cccc(S(=O)(=O)N3CCCCC3)c2)c2ccccc21` as the compound, how does the lipid storage change, negative = inhibition read?
A: inconclusive: -28.9%

Q: With `O=C1N=C(N2CCOCC2)S/C1=C1\C(=O)N(Cc2ccccc2)c2ccccc21` as the compound, how does the lipid storage change, negative = inhibition read?
A: inconclusive: -48.5%

Q: With `Cn1c(=O)c2c(SCc3cccnc3)nc(CC(C)(C)C)nc2n(C)c1=O` as the compound, how does the lipid storage change, negative = inhibition read?
A: inconclusive: 17% [at 9.22 µM]

Q: For `COc1cccc(-c2nc(CS(=O)CC(=O)NCc3ccccc3Cl)c(C)o2)c1` (stereo not given), which lipid storage change, negative = inhibition is on record?
A: inconclusive: 3.14%

Q: With `O=C(COC(=O)c1n[nH]c2ccccc12)Nc1ccc(Cl)cc1[N+](=O)[O-]` as the compound, how does the lipid storage change, negative = inhibition read?
A: inconclusive: 8.28%

Q: For `COc1ccc(-c2cc(C(=O)NCCN3CCOCC3)c3ccccc3n2)cc1`, which lipid storage change, negative = inhibition is on record?
A: inconclusive: -36.4%

Q: Which Potency does the source give for `CCCCOc1ccc(C(=O)NNC(=O)C2C3CCC(C3)C2C(=O)O)cc1` (stereo not given) here?
A: inconclusive: 29.1 µM [falling, single point]

Q: Which lipid storage change, negative = inhibition does the source give for `CCC(=O)Nc1ccc(N2CCN(C(=O)c3ccco3)CC2)c(Cl)c1` here?
A: inconclusive: 226%

Q: Which lipid storage change, negative = inhibition does the source give for `O=C(CN1CCC(Cc2ccccc2)CC1)Nc1ccc2c(c1)OCCO2` here?
A: inconclusive: 8.12%

Q: Which lipid storage change, negative = inhibition does the source give for `Cc1cccn2c(CNCC(C)Oc3cccnc3)c(C(=O)N3CCOCC3)nc12` (stereo not given) here?
A: inconclusive: 12.5%

Q: With `CC1CCCN(c2ccc(C(=O)Nc3cccnc3)cc2[N+](=O)[O-])C1` (stereo not given) as the compound, how does the lipid storage change, negative = inhibition read?
A: inconclusive: 15.4%

Q: For `O=C(CSC1=NCCN1)Nc1ccccc1[N+](=O)[O-]`, which lipid storage change, negative = inhibition is on record?
A: inconclusive: 1.24%

Q: For `CCOc1c(CNCCCSc2nc(C)cc(C)n2)cccc1OC`, which Potency is on record?
A: inconclusive: 14.6 µM [falling, partial curve]

Q: With `CCCCNc1ccc(C(=O)OCCOCCOCCOCCOCCOCCOCCOCCOCCOC)cc1` as the compound, how does the lipid storage change, negative = inhibition read?
A: inconclusive: 18.1%

Q: Which Potency does the source give for `Cc1cc(C)c(C)c(S(=O)(=O)NCc2ccc(C(=O)N3CCCC3)cc2)c1C` here?
A: inconclusive: 0.0517 µM [falling, full curve, poor fit]

Q: For `O=C(O)c1ccc(S(=O)(=O)c2ccc3c(c2)C(=O)N(c2ccccc2[N+](=O)[O-])C3=O)cc1`, which lipid storage change, negative = inhibition is on record?
A: inconclusive: -1.6%

Q: For `O=S(=O)(Nc1ccc(S(=O)(=O)N2CCCC2)cc1)c1ccc(F)cc1`, which Potency is on record?
A: inconclusive: 0.291 µM [falling, full curve, poor fit]

Q: Which lipid storage change, negative = inhibition does the source give for `C=C1N(c2ccc(Cl)cc2)C(=O)OC1(C)C` here?
A: inconclusive: -7.27%

Q: With `CCC(CC)NC(=O)c1ccc2nc[nH]c2c1` as the compound, how does the lipid storage change, negative = inhibition read?
A: inconclusive: -6.5%

Q: For `O=C1CCC(C(=O)Nc2ccc([N+](=O)[O-])cc2)N1` (stereo not given), which lipid storage change, negative = inhibition is on record?
A: inconclusive: -5.94%

Q: With `COc1ccc(C(CCNCc2ccc(N(C)C)cc2)c2ccccc2OC)cc1` (stereo not given) as the compound, how does the Potency read?
A: inconclusive: 29.1 µM [falling, single point]

Q: With `CC(=O)Nc1cc2c(cc1Br)OCCO2` as the compound, how does the Potency read?
A: inconclusive: 20.6 µM [cytotoxic, partial curve]

Q: Which lipid storage change, negative = inhibition does the source give for `CC1CC(C)CN(c2cc3c(cc2[N+](=O)[O-])C(=O)N(c2ccccc2)C3=O)C1` (stereo not given) here?
A: inconclusive: -4.82%

Q: Which lipid storage change, negative = inhibition does the source give for `CCc1ccccc1N(CC(=O)N1CCCCC1)S(=O)(=O)c1ccccc1` here?
A: inconclusive: 67.7%

Q: Which lipid storage change, negative = inhibition does the source give for `S=C(NCc1cccs1)Nc1ccc(Cl)cc1` here?
A: inconclusive: -21.5%
